# Measured data: PubChem BioAssay AID602196 (INSERM, 2012)
# Purpose: 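Modifiers of cisplatin sensitivity in A549 cells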
# Cells: human A549 lung cancer cells
# Knock-down reagent: siRNA pair against human genes
# Time to read-out: 48 h transfection before cisplatin; time from cisplatin to read-out not stated
# Treatment: cisplatin at a dose killing half of control-siRNA cells; exact dose and duration not given
# Measured: 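Cisplatin cell death as a shift from the 50% death seen with control siRNA; siRNAs toxic or growth-blocking alone scored 0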
# Reading the numbers: two-siRNA summed score (-2 to +2): higher = both siRNAs protect from cisplatin killing; -2 means both sensitise; mean protection from cisplatin (shift in death) and protection from cisplatin (shift in death), siRNA C and protection from cisplatin (shift in death), siRNA D: higher = protection from cisplatin killing
# Rule for the call: 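Each siRNA scores 0 if harmful alone by LDH or WST-1, otherwise +1 if it reduces and -1 if it increases cisplatin killing; a gene is active when both siRNAs agree (sum +2 or -2)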
# Meaning of the calls: active = both siRNAs shift cisplatin killing the same way; inactive = no consistent shift, or siRNA harmful alone
# In all, the deposit lists about 23,000 reagents; this is a part drawn at random. 455 of all reagents (2%) count as active. 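Active includes both protection and sensitisation; some change values fall well beyond the stated -50 to +50 range.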 Entries without a mark were called inactive. Not given: the amount of reagent.
gene symbol,two-siRNA summed score (-2 to +2),mean protection from cisplatin (shift in death) (%),"protection from cisplatin (shift in death), siRNA C (%)","protection from cisplatin (shift in death), siRNA D (%)"
PSMG1,-1,-2,14.5,-18.4
SUMF2,1,13.8,5.8,21.8
CMTR1,0,-10.7,-11.6,-9.8
GRB10,0,-2.4,-12.1,7.3
EPHX2,-1,-9.4,-18,-0.9
TRIM46,0,14.9,3.9,25.9
MESP2,0,4.1,11.1,-2.8
WDR48,0,8.4,26.4,-9.6
APOC4,1,23.8,25.1,22.6
PHKG2,0,8.5,6.6,10.5
IQSEC1,0,-5.7,-10.3,-1
CEPT1,0,1.3,0.9,1.7
LOC440990,0,25.4,27.8,23
SCYL3,0,-1.2,0.6,-3.1
MAGOH,-1,-14.3,-11.4,-17.1
LHFPL1,0,9.1,10.7,7.5
OXCT1,0,-2.7,-4.9,-0.6
CDIP1,1,5.9,5.7,6.2
CAPN2,0,-4.7,-0.7,-8.7
LOC387643,0,8.6,10,7.2
ZNF479,0,19.2,26.9,11.6
LMO7,0,10.1,15.1,5.1
FRMD7,0,7.8,5.6,9.9
LOC253665,0,12.9,6.4,19.5
HIPK3,-1,-2.6,-10.5,5.3
GNG7,0,-12.3,-7.3,-17.3
LOC390564,2 (active),24.8,21,28.7
AJUBA,1,12.3,13.3,11.4
ARL4D,-1,-4.7,-10.4,1
TBC1D3B,0,4.6,0,9.2
RXYLT1,0,7.4,7.5,7.3
CPA5,0,-20.8,-18.6,-23.1
RRH,1,13.6,23.7,3.5
HINT1,0,0.4,7.7,-6.9
LOC392395,1,11.5,-0.1,23
LOC391370,0,10,8,12
MEA1,0,-14.9,-8.2,-21.7
LOC402426,0,6.1,6.7,5.4
MEMO1,0,-2.3,4.9,-9.5

Records listed so far whose gene name starts with G or g:
gene symbol,two-siRNA summed score (-2 to +2),mean protection from cisplatin (shift in death) (%),"protection from cisplatin (shift in death), siRNA C (%)","protection from cisplatin (shift in death), siRNA D (%)"
GRB10,0,-2.4,-12.1,7.3
GNG7,0,-12.3,-7.3,-17.3
